Source: PMC5868278
Results are given in words; binding and its absence hold for the method and conditions named. Binding seen in cells or lysates may run through a third protein. Some binding calls cover weakened binding; strength is not graded here.

Target: vitamin D receptor (human) (UniProt P11473)
Experiment: co-IP; anti-GFP immunoprecipitation with GFP-Trap beads from HEK293T cells co-transfected with GFP- and HA-tagged constructs; Nonidet P-40 lysis buffer (10 mM Tris-Cl pH 7.5, 150 mM NaCl, 0.5 mM EDTA, 0.5% Nonidet P-40), 1 h at 4 °C; Western blot

B1: vitamin D receptor (protein, UniProt P11473 1-427)
chain: MEAMAASTSLPDPGDFDRNVPRICGVCGDRATGFHFNAMTCEGCKGFFRRSMKRKALFTCPFNGDCRITKDNRRHCQACRLKRCVDIGMMKEFILTDEEVQRKREMILKRKEEEALKDSLRPKLSEEQQRIIAILLDAHHKTYDPTYSDFCQFRPPVRVNDGGGSHPSRPNSRHTPSFSGDSSSSCSDHCITSSDMMDSSSFSNLDLSEEDSDDPSVTLELSQLSMLPHLADLVSYSIQKVIGFAKMIPGFRDLTSEDQIVLLKSSAIEVIMLRSNESFTMDDMSWTCGNQDYKYRVSDVTKAGHSLELIEPLIKFQVGLKKLNLHEEEHVLLMAICIVSPDRPGVQDAALIEAIQDRLSNTLQTYIRCRHPPPGSHLLYAKMIQKLADLRSLNEEHSKQYRCLSFQPECSMKLTPLVLEVFGNEIS
binding: binds
